# Earlier results as cited in patent publication US20230181556A1, “USE OF PSYCHOTROPIC DRUGS FOR THE TREATMENT OF CORONAVIRUS INFECTIONS” (priority 2020, published 2023).
# Protein sequences, listed by entry. Tags and fused reporters are not part of them. Residues count along the entry.
# UniProt Q9BYF1, 18-805: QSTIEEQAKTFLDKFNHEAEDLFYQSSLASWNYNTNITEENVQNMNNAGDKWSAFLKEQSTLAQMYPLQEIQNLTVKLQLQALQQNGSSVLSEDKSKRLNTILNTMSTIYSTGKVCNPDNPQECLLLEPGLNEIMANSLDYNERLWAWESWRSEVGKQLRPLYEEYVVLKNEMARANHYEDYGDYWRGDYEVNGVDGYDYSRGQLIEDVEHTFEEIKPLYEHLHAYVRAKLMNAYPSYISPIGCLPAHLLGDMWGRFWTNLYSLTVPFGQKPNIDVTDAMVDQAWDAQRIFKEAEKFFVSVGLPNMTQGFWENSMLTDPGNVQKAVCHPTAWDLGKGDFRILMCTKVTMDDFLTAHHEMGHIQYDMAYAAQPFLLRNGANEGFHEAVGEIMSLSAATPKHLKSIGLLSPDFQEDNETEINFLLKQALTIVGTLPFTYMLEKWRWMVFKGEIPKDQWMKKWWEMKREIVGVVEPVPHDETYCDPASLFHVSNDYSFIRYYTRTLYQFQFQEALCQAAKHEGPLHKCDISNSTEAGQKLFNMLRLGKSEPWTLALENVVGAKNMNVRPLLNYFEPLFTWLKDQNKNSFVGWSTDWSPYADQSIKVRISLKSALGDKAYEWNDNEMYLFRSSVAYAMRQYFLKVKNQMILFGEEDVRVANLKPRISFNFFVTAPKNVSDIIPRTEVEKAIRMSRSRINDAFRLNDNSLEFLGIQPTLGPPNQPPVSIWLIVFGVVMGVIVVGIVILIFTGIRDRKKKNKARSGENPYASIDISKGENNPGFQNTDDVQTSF
# Key:
# [1] = test system: viruses as listed per drug; details: virus or effect named in the literature; cited from earlier work
# [2] = target: spike protein-ACE2 interaction (Homo sapiens, UniProt Q9BYF1); details: Hou et al., Chemico-Biological Interactions 338 (2021) 109420; cited from earlier work
smiles,measurement,setting,value
CN1CCC[C@@H]1CCO[C@](C)(c1ccccc1)c1ccc(Cl)cc1 [Clemastine],Examples of published in vitro antiviral activity,[1],SARS-CoV-2
Clc1ccc2c(c1)CCc1cccnc1C2=C1CCNCC1 [Desloratadine],block of spike protein-ACE2 interaction,[2],efficient to block spike protein-ACE2 interaction
